# The other results are listed elsewhere or left out. Many values rest on one well or one pass, so single values are uncertain.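 Cells were imaged in 1,536-well plates, and nuclei stained with an antibody against cleaved PARP were counted against all DNA-stained nuclei to give the apoptosis fraction. Screening doses were chosen to leave most cells alive, and resting and induced cleaved-PARP levels differ strongly between cell lines.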
# System: COLO800
# Test: cleaved PARP positive nuclei fraction relative to DMSO control; melanoma cells; higher = more apoptosis
# Settings: library dose: low library concentration; 72 h
row,Compound,cleaved PARP positive nuclei fraction
1,"Oc1cc(-c2nc(-c3ccccc3)[nH]c2-c2ccncc2)ccc1Cl + CCCCCCCCCCCC1=C(O)C(=O)C=C(O)C1=O [Embelin] (first compound 0.2 µM, partner dose 1.2 µM)",143%
2,"Oc1cc(-c2nc(-c3ccccc3)[nH]c2-c2ccncc2)ccc1Cl + Cc1cc([N+](=O)[O-])ccc1NS(=O)(=O)c1cc(Cl)ccc1Cl [FH535] (first compound 0.2 µM, partner dose 1 µM)",132%
3,"COc1cc2c(Oc3ccc4[nH]c(C)cc4c3F)ncnc2cc1OCCCN1CCCC1 [cediranib] + CCCCCCCCCCCC1=C(O)C(=O)C=C(O)C1=O [Embelin] (first compound 0.4 µM, partner dose 1.2 µM)",103%
4,"NCC(=O)Nc1ccc(-n2nc(C(F)(F)F)cc2-c2ccc3c(ccc4ccccc43)c2)cc1 + Cn1cc(/C=C2\C(=O)Nc3cccnc32)c2ccccc21 [GW441756] (first compound 1 µM, partner dose 0.4 µM)",243%
5,"Oc1nc(-c2ccc(C(F)(F)F)cc2)nc2c1CSCC2 + O=c1cc(-c2cccc3c2Sc2ccccc2S3)oc(N2CCOCC2)c1 [KU55933] (first compound 2 µM, partner dose 1 µM)",135%
6,"O=C(O)C(=O)Nc1sc2c(c1C(=O)O)CCNC2 + O=C1NC(=O)/C(=C/c2ccc(-c3ccc(F)cc3O)o2)S1 [AS252424] (first compound 1.66667 µM, partner dose 1 µM)",14.6%
7,"COC(=O)c1sccc1S(=O)(=O)Nc1ccc(Nc2ccccc2)cc1OC + COc1cc(N2CCC(N3CCN(C)CC3)CC2)ccc1Nc1ncc(Cl)c(Nc2ccccc2S(=O)(=O)C(C)C)n1 [NVP-TAE684] (first compound 1 µM, partner dose 0.08 µM)",98.9%
8,"NCC(=O)Nc1ccc(-n2nc(C(F)(F)F)cc2-c2ccc3c(ccc4ccccc43)c2)cc1 + COc1ccc(-c2ccc3c(N4CCOCC4)nc(N4C[C@@H](C)O[C@@H](C)C4)nc3n2)cc1CO [KU0063794] (first compound 1 µM, partner dose 0.02 µM)",59.5%
9,"CN(C)S(=O)(=O)c1ccc2c(c1)/C(=C/c1cc3c([nH]1)CCCC3)C(=O)N2 + N#Cc1c(O)c2c(-c3ccc(-c4ccccc4O)cc3)csc2[nH]c1=O [A769662] (first compound 0.4 µM, partner dose 2 µM)",93.3%
10,"CN(C)S(=O)(=O)c1ccc2c(c1)/C(=C/c1cc3c([nH]1)CCCC3)C(=O)N2 + Oc1nc(-c2ccc(C(F)(F)F)cc2)nc2c1CSCC2 [XAV939] (first compound 0.4 µM, partner dose 2 µM)",107%
11,"COc1cc2ncnc(Nc3ccc(Oc4ccccc4)cc3)c2cc1OC + Oc1cc(-c2nc(-c3ccccc3)[nH]c2-c2ccncc2)ccc1Cl [L779450] (first compound 2 µM, partner dose 0.2 µM)",112%
12,"NCC(=O)Nc1ccc(-n2nc(C(F)(F)F)cc2-c2ccc3c(ccc4ccccc43)c2)cc1 + CCCCCCCCCCCC1=C(O)C(=O)C=C(O)C1=O [Embelin] (first compound 1 µM, partner dose 1.2 µM)",112%
13,"COc1cc2ncnc(Nc3ccc(Oc4ccccc4)cc3)c2cc1OC + c1cc(-c2cnn3cc(-c4ccc(OCCN5CCCCC5)cc4)cnc23)ccn1 [Dorsomorphin] (first compound 2 µM, partner dose 0.4 µM)",101%

# Source: the supplement of paper PMC4604168 (melanoma cell lines)
